Test results taken from publication PMC3031606.
No constants are given. Whether binding was seen depends on the method and setting. For some of these results: Binding seen in cells or lysates may run through a third protein. Some results given as binding are weak or reduced against the parent protein; the word gives no strength. Sequences can lack the tags named with a protein. One block for each binder: values may come before it.

Key:
[1] = target: LHP1 protein fused to a His6 tag (Arabidopsis thaliana) (UniProt Q946J8); assay: pull-down; E. coli extracts with GST- and His6-tagged proteins mixed in a 1:2 ratio with glutathione Sepharose 4B beads, room temperature 1 h, BB binding buffer, 5 washes; His6-tagged protein detected by anti-His6-peroxidase blot; in duplicate
[2] = target: T1, LIF2 protein fused to GST (Arabidopsis thaliana) (UniProt Q9ASP6); assay: as above
T1 sequence: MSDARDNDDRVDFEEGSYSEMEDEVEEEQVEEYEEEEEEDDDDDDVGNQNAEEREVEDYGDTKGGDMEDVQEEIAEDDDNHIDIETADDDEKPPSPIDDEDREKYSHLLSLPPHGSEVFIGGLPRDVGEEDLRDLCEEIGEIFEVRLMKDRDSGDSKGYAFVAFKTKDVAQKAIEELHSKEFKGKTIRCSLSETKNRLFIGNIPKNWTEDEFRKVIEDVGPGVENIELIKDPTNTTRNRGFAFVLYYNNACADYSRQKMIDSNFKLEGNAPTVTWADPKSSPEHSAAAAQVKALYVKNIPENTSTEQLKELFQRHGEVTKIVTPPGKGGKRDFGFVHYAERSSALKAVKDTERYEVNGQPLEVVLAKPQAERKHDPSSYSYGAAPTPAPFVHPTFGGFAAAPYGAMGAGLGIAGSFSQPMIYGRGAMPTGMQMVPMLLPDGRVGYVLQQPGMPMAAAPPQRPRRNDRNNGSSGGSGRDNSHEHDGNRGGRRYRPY

[3] = target: T2, LHP1 fused to a split YFP fragment for BiFC (Arabidopsis thaliana) (UniProt Q946J8); assay: split reporter; BiFC with split YFP in transiently transformed N. benthamiana leaves; Agrobacterium strains mixed 1:1, observed 48 to 72 h after infiltration by confocal microscopy; LIF2:YFP^N with LHP1:YFP^C; LHP1 with LHP1
T2 sequence: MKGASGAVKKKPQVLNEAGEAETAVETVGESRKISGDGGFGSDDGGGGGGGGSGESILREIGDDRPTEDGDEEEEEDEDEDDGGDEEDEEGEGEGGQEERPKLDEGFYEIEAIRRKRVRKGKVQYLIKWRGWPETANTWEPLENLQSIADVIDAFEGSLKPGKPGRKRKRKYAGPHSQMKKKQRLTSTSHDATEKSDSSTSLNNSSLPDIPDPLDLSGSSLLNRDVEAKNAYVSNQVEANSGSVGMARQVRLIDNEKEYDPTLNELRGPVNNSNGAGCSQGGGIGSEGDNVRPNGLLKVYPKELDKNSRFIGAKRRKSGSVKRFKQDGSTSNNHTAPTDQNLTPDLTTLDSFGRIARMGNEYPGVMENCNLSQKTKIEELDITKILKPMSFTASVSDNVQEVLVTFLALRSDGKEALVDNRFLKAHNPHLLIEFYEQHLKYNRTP

[4] = target: T3, LIKE HETEROCHROMATIN PROTEIN1 (LHP1), full length, fused to the GAL4 DNA binding domain (Arabidopsis thaliana) (UniProt Q946J8); assay: two-hybrid; yeast two-hybrid assays with LIF2 pentapeptide mutant or deletion and LHP1; data not shown
T3 sequence: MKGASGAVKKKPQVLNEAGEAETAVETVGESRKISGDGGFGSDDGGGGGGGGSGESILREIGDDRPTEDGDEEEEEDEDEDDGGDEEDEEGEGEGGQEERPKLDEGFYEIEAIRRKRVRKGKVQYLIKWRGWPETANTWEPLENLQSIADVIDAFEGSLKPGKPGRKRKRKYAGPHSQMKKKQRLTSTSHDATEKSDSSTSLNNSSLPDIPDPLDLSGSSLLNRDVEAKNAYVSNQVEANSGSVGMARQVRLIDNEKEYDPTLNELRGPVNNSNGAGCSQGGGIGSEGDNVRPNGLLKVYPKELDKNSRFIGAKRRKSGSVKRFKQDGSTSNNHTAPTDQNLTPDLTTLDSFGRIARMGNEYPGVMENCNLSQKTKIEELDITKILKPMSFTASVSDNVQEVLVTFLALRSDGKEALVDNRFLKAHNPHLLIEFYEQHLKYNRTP

[5] = target: T2, LHP1 fused to a split YFP fragment for BiFC (Arabidopsis thaliana); assay: split reporter; BiFC in N. benthamiana leaves with the swapped fusions LIF2:YFP^C and LHP1:YFP^N; data not shown
[6] = target: T3, LIKE HETEROCHROMATIN PROTEIN1 (LHP1), full length, fused to the GAL4 DNA binding domain (Arabidopsis thaliana); assay: two-hybrid; GAL4 system in yeast PJ69-4A; LHP1 or truncated LHP1 fused to the GAL4 DNA binding domain as bait, λACT Arabidopsis cDNA library clone / pAD-LIF2 as prey; selection on medium lacking histidine, leucine and tryptophan with 2 mM 3-amino-1,2,4-triazole, β-galactosidase assay; confirmed by independent cotransformations

B1: LHP1 protein fused to a His6 tag (protein, UniProt Q946J8 1-445)
chain: MKGASGAVKKKPQVLNEAGEAETAVETVGESRKISGDGGFGSDDGGGGGGGGSGESILREIGDDRPTEDGDEEEEEDEDEDDGGDEEDEEGEGEGGQEERPKLDEGFYEIEAIRRKRVRKGKVQYLIKWRGWPETANTWEPLENLQSIADVIDAFEGSLKPGKPGRKRKRKYAGPHSQMKKKQRLTSTSHDATEKSDSSTSLNNSSLPDIPDPLDLSGSSLLNRDVEAKNAYVSNQVEANSGSVGMARQVRLIDNEKEYDPTLNELRGPVNNSNGAGCSQGGGIGSEGDNVRPNGLLKVYPKELDKNSRFIGAKRRKSGSVKRFKQDGSTSNNHTAPTDQNLTPDLTTLDSFGRIARMGNEYPGVMENCNLSQKTKIEELDITKILKPMSFTASVSDNVQEVLVTFLALRSDGKEALVDNRFLKAHNPHLLIEFYEQHLKYNRTP
binding [1]: binds | binding [2]: binds

B2: LHP1 fused to a split YFP fragment for BiFC (protein, UniProt Q946J8 1-445)
chain: MKGASGAVKKKPQVLNEAGEAETAVETVGESRKISGDGGFGSDDGGGGGGGGSGESILREIGDDRPTEDGDEEEEEDEDEDDGGDEEDEEGEGEGGQEERPKLDEGFYEIEAIRRKRVRKGKVQYLIKWRGWPETANTWEPLENLQSIADVIDAFEGSLKPGKPGRKRKRKYAGPHSQMKKKQRLTSTSHDATEKSDSSTSLNNSSLPDIPDPLDLSGSSLLNRDVEAKNAYVSNQVEANSGSVGMARQVRLIDNEKEYDPTLNELRGPVNNSNGAGCSQGGGIGSEGDNVRPNGLLKVYPKELDKNSRFIGAKRRKSGSVKRFKQDGSTSNNHTAPTDQNLTPDLTTLDSFGRIARMGNEYPGVMENCNLSQKTKIEELDITKILKPMSFTASVSDNVQEVLVTFLALRSDGKEALVDNRFLKAHNPHLLIEFYEQHLKYNRTP
binding [3]: binds

B5: LHP1-Interacting Factor2 (LIF2), partial cDNA clone aa 204-495 isolated in the two-hybrid screen (domain or fragment, UniProt Q9ASP6 204-495)
chain: PKNWTEDEFRKVIEDVGPGVENIELIKDPTNTTRNRGFAFVLYYNNACADYSRQKMIDSNFKLEGNAPTVTWADPKSSPEHSAAAAQVKALYVKNIPENTSTEQLKELFQRHGEVTKIVTPPGKGGKRDFGFVHYAERSSALKAVKDTERYEVNGQPLEVVLAKPQAERKHDPSSYSYGAAPTPAPFVHPTFGGFAAAPYGAMGAGLGIAGSFSQPMIYGRGAMPTGMQMVPMLLPDGRVGYVLQQPGMPMAAAPPQRPRRNDRNNGSSGGSGRDNSHEHDGNRGGRRYRPY
binding [6]: binds

Results, then the binder that gave them:

binding [4]: binds
B3: LIF2 with the putative pentapeptide 361LEVVL365 deleted (protein, UniProt Q9ASP6)
chain: MSDARDNDDRVDFEEGSYSEMEDEVEEEQVEEYEEEEEEDDDDDDVGNQNAEEREVEDYGDTKGGDMEDVQEEIAEDDDNHIDIETADDDEKPPSPIDDEDREKYSHLLSLPPHGSEVFIGGLPRDVGEEDLRDLCEEIGEIFEVRLMKDRDSGDSKGYAFVAFKTKDVAQKAIEELHSKEFKGKTIRCSLSETKNRLFIGNIPKNWTEDEFRKVIEDVGPGVENIELIKDPTNTTRNRGFAFVLYYNNACADYSRQKMIDSNFKLEGNAPTVTWADPKSSPEHSAAAAQVKALYVKNIPENTSTEQLKELFQRHGEVTKIVTPPGKGGKRDFGFVHYAERSSALKAVKDTERYEVNGQPAKPQAERKHDPSSYSYGAAPTPAPFVHPTFGGFAAAPYGAMGAGLGIAGSFSQPMIYGRGAMPTGMQMVPMLLPDGRVGYVLQQPGMPMAAAPPQRPRRNDRNNGSSGGSGRDNSHEHDGNRGGRRYRPY

binding [5]: binds | binding [3]: binds
B4: LIF2 fused to a split YFP fragment for BiFC (protein, UniProt Q9ASP6 1-495)
chain: MSDARDNDDRVDFEEGSYSEMEDEVEEEQVEEYEEEEEEDDDDDDVGNQNAEEREVEDYGDTKGGDMEDVQEEIAEDDDNHIDIETADDDEKPPSPIDDEDREKYSHLLSLPPHGSEVFIGGLPRDVGEEDLRDLCEEIGEIFEVRLMKDRDSGDSKGYAFVAFKTKDVAQKAIEELHSKEFKGKTIRCSLSETKNRLFIGNIPKNWTEDEFRKVIEDVGPGVENIELIKDPTNTTRNRGFAFVLYYNNACADYSRQKMIDSNFKLEGNAPTVTWADPKSSPEHSAAAAQVKALYVKNIPENTSTEQLKELFQRHGEVTKIVTPPGKGGKRDFGFVHYAERSSALKAVKDTERYEVNGQPLEVVLAKPQAERKHDPSSYSYGAAPTPAPFVHPTFGGFAAAPYGAMGAGLGIAGSFSQPMIYGRGAMPTGMQMVPMLLPDGRVGYVLQQPGMPMAAAPPQRPRRNDRNNGSSGGSGRDNSHEHDGNRGGRRYRPY
